Measured values from PMC4633129.
No constants are given. Whether binding was seen depends on the method and setting. Binding seen in cells or lysates may run through a third protein. Some entries that bind do so weakly or less than the wild type. Sequences can lack the tags named with a protein.

By UniProt entry, the sequences of proteins in these tests, tags left out.
UniProt P52631: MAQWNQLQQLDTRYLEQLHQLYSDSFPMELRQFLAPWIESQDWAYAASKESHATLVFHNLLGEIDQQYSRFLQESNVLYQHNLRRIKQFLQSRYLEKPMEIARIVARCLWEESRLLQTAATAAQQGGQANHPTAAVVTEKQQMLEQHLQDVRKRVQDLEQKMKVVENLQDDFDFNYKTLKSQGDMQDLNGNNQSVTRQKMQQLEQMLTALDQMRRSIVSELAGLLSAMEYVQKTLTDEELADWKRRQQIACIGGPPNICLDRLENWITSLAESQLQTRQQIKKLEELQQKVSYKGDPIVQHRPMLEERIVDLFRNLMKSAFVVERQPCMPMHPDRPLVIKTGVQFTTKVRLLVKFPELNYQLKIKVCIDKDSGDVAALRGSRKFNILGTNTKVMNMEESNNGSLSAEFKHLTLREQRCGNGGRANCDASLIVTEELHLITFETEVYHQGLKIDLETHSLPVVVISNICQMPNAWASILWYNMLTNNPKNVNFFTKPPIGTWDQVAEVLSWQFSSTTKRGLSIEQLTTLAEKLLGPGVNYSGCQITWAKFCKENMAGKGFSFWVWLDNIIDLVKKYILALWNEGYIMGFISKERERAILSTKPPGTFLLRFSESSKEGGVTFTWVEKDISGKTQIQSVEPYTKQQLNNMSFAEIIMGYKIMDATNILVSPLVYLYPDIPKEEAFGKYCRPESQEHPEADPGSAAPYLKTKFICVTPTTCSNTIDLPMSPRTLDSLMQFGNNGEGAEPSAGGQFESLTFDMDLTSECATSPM

Target: T1, FLAG-tagged PHB1 (prohibitin 1) (UniProt P35232)
T1 sequence: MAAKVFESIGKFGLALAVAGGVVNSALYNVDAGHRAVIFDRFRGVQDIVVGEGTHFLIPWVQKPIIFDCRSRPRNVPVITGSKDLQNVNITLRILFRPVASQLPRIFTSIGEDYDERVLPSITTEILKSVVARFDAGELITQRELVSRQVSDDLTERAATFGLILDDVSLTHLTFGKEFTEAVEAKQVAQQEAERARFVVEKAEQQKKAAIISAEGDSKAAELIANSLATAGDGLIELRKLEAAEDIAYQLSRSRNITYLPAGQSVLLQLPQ
Test: co-IP; anti-FLAG M2 antibody with protein G Plus/A-agarose from lysates of H9c2 cells transfected with FLAG-PHB1 and FLAG-PHB2; cells incubated 0, 15 or 30 min with FL3 (100 nM) before lysis; IP buffer 20 mM Tris-HCl, 5 M NaCl (so in the source), 2 mM EDTA, 1% Triton X-100; western blot with anti-STAT3 or anti-phospho-STAT3

Substance	binding
phospho-STAT3 (from UniProt P52631 1-770)	binds
STAT3 (from UniProt P52631 1-770)	binds
